In US20260209300A1:
No constants are given. Whether binding was seen depends on the method and setting. Binding calls can cover weak binding; strength is not graded here.

Target: IL-2 receptor alpha (Homo sapiens (Human))
Test: ELISA

binding: binds
B1: SAFA-IL-2m2 (APB-R4) (protein)
heavy: QVQLVQSGGGPVKPGGSLRLSCAASGFMFRAYSMNWVRQAPGKGLEWVSSISSSGRYIHYADSVKGRFTISRDNAKNSLYLQMNSLRAEDTAVYYCARETVMAGKALDYWGQGTLVTVSSASTKGPSVFPLAPSSKSTSEGTAALGCLVKDYFPEPVTVSWNSGALTSGVHTFPAVLQSSGLYSLSSVVTVPSSSLGTQTYICNVNHKPSNTKVDKKVEPKSSGGGGSGGGGSAPTSSSTKKTQLQLEHLLLDLQMILNGINNYKNPKLTRMLTFKFYMPKKATELKHLQCLEEELKPLEEVLNLAQSKNFHLRPRDLISRINDIVLELKGSETTFSCEYADETATIVEFLNRWITFAQSIISTLT
light: DIVLTQSPGTLSLSPGETATLSCRASQSVGSNLAWYQQKPGQAPRLLIYGASTGATGVPARFSGSRSGTDFTLTITSLQPEDFATYYCQQYYSFLAKTFGQGTQLEIKRTVAAPSVFIFPPSDEQLKSGTASVVCLLNNFYPREAKVQWKVDNALQSGNSQESVTEQDSKDSTYSLSNTLTLSKADYEKHKVYACEVTHQGLSSPVTKSFNRGES
